This is one part of the list.
Compound: CC1Cc2ccccc2N1C(=O)C1CCCN(C1)C(=O)CCl (mixture of isomers) [TRIM25 ligand 11 (diastereomer mixture)]
Test: probe-labelled cysteine peptide fold change vs DMSO (competition) (log2 fold change); higher = less target engagement (more negative = stronger competition)
Settings: 50 µM; THP-1; incubation time: 4 h
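Note: competitive chemoproteomic profiling in live THP-1 cells with an iodoacetamide desthiobiotin (IA-DTB) probe, comparing probe-labelled peptide intensities in compound-treated cells against DMSO-treated controls.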

Target | probe-labelled cysteine peptide fold change
KBTBD11_O94819_483+485_RDEWQECPCSSSR (UniProt O94819) | -0.0495
KANK2_Q63ZY3_562_QECQLSR (UniProt Q63ZY3) | -0.0158
KDSR_Q06136_47_CIAIECYK (UniProt Q06136) | 0.239
KAT8_Q9H7Z6_63_GEPEVTVEIGETYLCR (UniProt Q9H7Z6) | 0.211
KDM2B_Q8NHM5_1278_DSLTEINLSDCNK (UniProt Q8NHM5) | 0.099
KDM4A_O75164_798_ANDDRWVHVSCAVAILEAR (UniProt O75164) | -0.0809
KDM3B_Q7LBC6_1045_EMCDVCETTLFNIHWVCR (UniProt Q7LBC6) | 0.0746
KAT2A_Q92830_695_KVYPGLSCFK (UniProt Q92830) | -0.309
KARS_Q15046_434_AVECPPPR (UniProt Q15046) | 0.0775
KANK2_Q63ZY3_389_SQEVVETMCPVPAAATSNVHMVK (UniProt Q63ZY3) | -0.293
ITPK1_Q13572_126_KIEAYMEDDRICSPPFMELTSLCGDDTMR (UniProt Q13572) | -0.18
KDM4A_O75164_560_VTVGEPCTR (UniProt O75164) | -0.158
KDM4A_O75164_917_FYQCEVVR (UniProt O75164) | 0.422
KBTBD11_O94819_384_ARPSDQVFCYNPATDSWSAVRPLR (UniProt O94819) | 0.172
ITPR1_Q14643_2536_EHTCETLLMCIVTVLSHGLR (UniProt Q14643) | 0.0122
KDM2A_Q9Y2K7_913_ELCECMR (UniProt Q9Y2K7) | 0.318
KDM3A_Q9Y4C1_497_VDNESCCSR (UniProt Q9Y4C1) | 0.258
ITPR1_Q14643_768_CMSDENLPYDLR (UniProt Q14643) | 0.197
KDM2A_Q9Y2K7_463_CLVDKLESLPLHK (UniProt Q9Y2K7) | -0.0776

An excerpt of these results, tab-delimited.
Target	probe-labelled cysteine peptide fold change
KARS_Q15046_434_AVECPPPR (UniProt Q15046)	0.0775
KBTBD11_O94819_384_ARPSDQVFCYNPATDSWSAVRPLR (UniProt O94819)	0.172
ITPR1_Q14643_768_CMSDENLPYDLR (UniProt Q14643)	0.197

(further entries)

Target | probe-labelled cysteine peptide fold change
KAT6B_Q8WYB5_837_GCHLVGYFSK (UniProt Q8WYB5) | 0.171
KANSL2_Q9H9L4_46_LEGQEFCIK (UniProt Q9H9L4) | 0.142
KDM1A_O60341_600_YTASGCEVIAVNTR (UniProt O60341) | 0.139
KIF13B_Q9NQT8_1234_AEASWDSAVHGCPQLSR (UniProt Q9NQT8) | 0.0464
KDM3B_Q7LBC6_1034_EMCDVCETTLFNIHWVCR (UniProt Q7LBC6) | 0.168
KARS_Q15046_427_ILDDICVAK (UniProt Q15046) | -0.146
KDELC2_Q7Z4H8_141_GPVYHEYCECPEDPQAWQK (UniProt Q7Z4H8) | -0.0237
KDELC1_Q6UW63_257_SNSNIHPIFSWCGSTDSK (UniProt Q6UW63) | 0.0808
JAK2_O60674_178_VPVTHETQEECLGMAVLDMMR (UniProt O60674) | -0.00309
KDM3A_Q9Y4C1_251_IVDPSLIHVEVVHDNLVTCGNSAR (UniProt Q9Y4C1) | -0.258
KEAP1_Q14145_489_LNSAECYYPER (UniProt Q14145) | 0.326
KEAP1_Q14145_273_CHSLTPNFLQMQLQK (UniProt Q14145) | 0.351
IWS1_Q96ST2_749_ALRPGDPGFCAR (UniProt Q96ST2) | -0.215
ITPR1_Q14643_1424_VVTHEDCIPEVK (UniProt Q14643) | 0.147
KDM1A_O60341_491_DLTALCK (UniProt O60341) | 0.259
JMJD4_Q9H9V9_188_DWHLCR (UniProt Q9H9V9) | 0.068
KDM3A_Q9Y4C1_467_AGVNSDSPNNCSGK (UniProt Q9Y4C1) | -0.0181
KEAP1_Q14145_624_QIDQQNCTC (UniProt Q14145) | 0.00107

— the supplement of paper PMC12067093, “Discovery and optimisation of a covalent ligand for TRIM25 and its application to targeted protein ubiquitination” (Chemical Science, 2025)
